No constants are given. Whether binding was seen depends on the method and setting. Binding seen in cells or lysates may run through a third protein. A result given as binding can be weak or reduced; the word gives no strength.
Target: Dcp2 (mouse)
Test: co-immunoprecipitation of Act1 from MEFs, IL17 0, 15, 30, 60, 180 min, with DMSO or the inhibitor MRT67307, Western blot

B1: Act1 (MEFs, immunoprecipitated with anti-Act1) (protein, mouse (MEFs), UniProt Q8N7N6 1-555, looked up)
chain: MNRSIPVEVDESEPFPSQLLKPIPEYSPEEELEPPAPNTRNMAPSSLSVLQCPPLKLANHQPVSQQVTCLRAKVLEEGEASFFRRHPELGKDISSCSSGASEPESELGALPPEHRFTLTEKRNRWLGSQLSAASPDTGHESDKSDPSLPNALADSFSGGQEMMPRPRPRPGPHRHRAAPDVPTIDTGYDSQPQDVLGIRQLERPLPLTSSCYLQDLPGPLRSRELPPQFELERYPMNAQLLPPHPSPQAPWNCQYYCPGGPYHHQVPHGHGYPPAAAYQQVLQPALPGQVLPGARARGPRPVQKVILNDSSPQDQEERPAQRDFSFPRLPRDQLYRPPSNGVEAPEESLDLPAELRPHGPQAPSLAAVPRPPSNPLARGTLRTSNLPEELRKVFITYSMDTAMEVVKFVNFLLVNGFQTAIDIFEDRIRGIDIIKWMERYLRDKTVMIIVAISPKYKQDVEGAESQLDEDEHGLHTKYIHRMMQIEFISQGSMNFRFIPVLFPNAKKEHVPTWLQNTHVYSWPKNKKNILLRLLREEEYVAPPRGPLPTLQVVPL
In the case of B1, the binding is reported as “binds”.

Source: patent US20230009539A1
